These results are taken from the supplement of paper PMC11348887.

Counter-ions that a name gives are not always drawn. The list shows a part of the results. Most values lie at the level of the controls, where differences are scatter.

Holding throughout (conditions): 5 µM; treatment: days 7-14 after plating, readout day 21
Test [1] relates to hPSC-derived cortical neurons (WA09). In words: nucleus area z-score vs screen plate; higher = larger nuclei (more mature).
Test [2] has the same test system. In words: total neurite length per nucleus (MAP2) z-score; higher = more neurite growth.
For test [3] the test system is unchanged. In words: nucleus roundness z-score vs screen plate; higher = rounder nuclei (more mature).
The test system is the same in test [4]. In words: KCl-induced FOS+/EGR-1+ double-positive nuclei fraction z-score (KCl minus unstimulated); higher = stronger activity-induced IEG response.

Molecule `CN[C@@H]1[C@H](O[C@H]2[C@H](O[C@H]3[C@H](O)[C@@H](O)[C@H](NC(=N)N)[C@@H](O)[C@@H]3NC(=N)N)O[C@@H](C)[C@]2(O)CO)O[C@@H](CO)[C@H](O)[C@H]1O` [Dihydrostreptomycin sulfate] yielded a nucleus area z-score in test [1] of 1.49. Further, the “total neurite length per nucleus (z-score)” value in test [2] came to 1.32. The molecule further gave a nucleus roundness z-score in test [3] of 0.759. In addition, the “KCl-induced FOS+/EGR-1+ double-positive nuclei fraction z-score” value in test [4] was determined as 0.225.

In test [1], `Oc1ccc(O)cc1` [Hydroquinone] displayed a nucleus area z-score of -0.0842. Also, the “total neurite length per nucleus (z-score)” value in test [2] was 0.0264. The molecule further came in with a nucleus roundness z-score in test [3] of 0.239. The “KCl-induced FOS+/EGR-1+ double-positive nuclei fraction z-score” value in test [4] came out at 0.409.

As for `NC1=N[C@@](c2cccc(-c3cncnc3)c2)(c2ccnc(C(F)F)c2)c2cccc(F)c21`, in test [1], the nucleus area z-score is -0.562. In addition, the “total neurite length per nucleus (z-score)” value in test [2] is -0.188. The nucleus roundness z-score in test [3] was -0.767. In test [4], the “KCl-induced FOS+/EGR-1+ double-positive nuclei fraction z-score” value was -0.807.

With `NC(=O)[C@@H](CCC(F)(F)F)N(Cc1ccc(-c2ncon2)cc1F)S(=O)(=O)c1ccc(Cl)cc1`, in test [1], the nucleus area z-score is -0.496. The “total neurite length per nucleus (z-score)” value in test [2] is -0.319. Further, the nucleus roundness z-score in test [3] was 0.0127. In addition, the “KCl-induced FOS+/EGR-1+ double-positive nuclei fraction z-score” value in test [4] is -0.0549.

In test [1], `NS(=O)(=O)c1cc2c(cc1Cl)N=CNS2(=O)=O` [Chlorothiazide] showed a nucleus area z-score of 0.514. Moreover, the “total neurite length per nucleus (z-score)” value in test [2] was -0.674. In addition, the nucleus roundness z-score in test [3] is -0.253. Moreover, the “KCl-induced FOS+/EGR-1+ double-positive nuclei fraction z-score” value in test [4] worked out at 0.109.

The molecule `CCNC1(C(N)=O)CCN(c2ncnc3c2nc(-c2ccccc2Cl)n3-c2ccc(Cl)cc2)CC1` displayed a nucleus area z-score in test [1] of -0.389. Besides, in test [2], the “total neurite length per nucleus (z-score)” value came to 0.0146. Also, in test [3], the nucleus roundness z-score was -0.0882. In addition, the “KCl-induced FOS+/EGR-1+ double-positive nuclei fraction z-score” value in test [4] was found to be 0.0724.

The molecule `CN(C(=O)CNC(=O)/C=C/c1cccc(Cl)c1)C1CCS(=O)(=O)CC1` returned a nucleus area z-score in test [1] of -0.304. In test [2], the “total neurite length per nucleus (z-score)” value was -0.0171. In test [3], the nucleus roundness z-score is -1.04. The “KCl-induced FOS+/EGR-1+ double-positive nuclei fraction z-score” value in test [4] was determined as 0.664.

Take `CC(C)(C)c1ccc(C(O)CCCN2CCC(C(O)(c3ccccc3)c3ccccc3)CC2)cc1` (configuration not stated) [Terfenadine]: the nucleus area z-score in test [1] is -17.3. The “total neurite length per nucleus (z-score)” value in test [2] was -6.09. The molecule further had a nucleus roundness z-score in test [3] of -9.53. Further, the “KCl-induced FOS+/EGR-1+ double-positive nuclei fraction z-score” value in test [4] was -0.69.

On to `CS(=O)(=O)c1ccc(-c2cnc(N)c(C(=O)Nc3ccccc3)n2)cc1`, for which, in test [1], the nucleus area z-score turned out to be 1.46. In test [2], the “total neurite length per nucleus (z-score)” value is 1.04. Further, the nucleus roundness z-score in test [3] was determined as 0.536. The “KCl-induced FOS+/EGR-1+ double-positive nuclei fraction z-score” value in test [4] turned out to be 1.4.

Turning to `Cc1c(NC(=O)c2cccnc2)c(=O)n(-c2ccccc2)n1C` [Nifenazone], in test [1], the nucleus area z-score is -0.293. Moreover, the “total neurite length per nucleus (z-score)” value in test [2] was found to be 0.484. This molecule had a nucleus roundness z-score in test [3] of 1.48. The “KCl-induced FOS+/EGR-1+ double-positive nuclei fraction z-score” value in test [4] was 1.78.

As to `c1coc(CNc2ncnc3[nH]cnc23)c1` [Kinetin], in test [1], the nucleus area z-score came to 1.18. The “total neurite length per nucleus (z-score)” value in test [2] was determined as 0.254. Moreover, the nucleus roundness z-score in test [3] is -1.25. In addition, the “KCl-induced FOS+/EGR-1+ double-positive nuclei fraction z-score” value in test [4] is -1.03.

For the molecule `CCCN[C@H]1CCc2nc(N)sc2C1` [Pramipexole 2HCl Monohydrate], the nucleus area z-score in test [1] came to 0.531. The “total neurite length per nucleus (z-score)” value in test [2] is -0.173. The molecule also gave a nucleus roundness z-score in test [3] of -1.53. Further, in test [4], the “KCl-induced FOS+/EGR-1+ double-positive nuclei fraction z-score” value amounted to 0.658.

In the case of `O=C(O)c1cc(-c2ccccc2)nc2ccccc12` [Cinchophen], the nucleus area z-score in test [1] was 1.01. Besides, in test [2], the “total neurite length per nucleus (z-score)” value worked out at 1.45. For the same molecule, the nucleus roundness z-score in test [3] turned out to be 1.02. Besides, the “KCl-induced FOS+/EGR-1+ double-positive nuclei fraction z-score” value in test [4] was -0.23.

In the case of `CC(NCCc1ccc(O)cc1)C(O)c1ccc(O)cc1` (configuration not stated) [Ritodrine HCl], the nucleus area z-score in test [1] was -0.557. Besides, the “total neurite length per nucleus (z-score)” value in test [2] is -0.473. For the same molecule, in test [3], the nucleus roundness z-score came out at 0.259. Also, in test [4], the “KCl-induced FOS+/EGR-1+ double-positive nuclei fraction z-score” value is -0.0912.

`O=C(O)C(O)Cc1ccc(O)c(O)c1` (configuration not stated) [Sodium Danshensu]: the nucleus area z-score in test [1] worked out at 0.856. Moreover, the “total neurite length per nucleus (z-score)” value in test [2] was -0.143. In addition, the nucleus roundness z-score in test [3] is 0.756. Moreover, the “KCl-induced FOS+/EGR-1+ double-positive nuclei fraction z-score” value in test [4] came to 0.611.

As for `N#Cc1ccc2[nH]cc(CCCCN3CCN(c4ccc5oc(C(N)=O)cc5c4)CC3)c2c1` [Vilazodone HCl], in test [1], the nucleus area z-score is -1.61. Also, the “total neurite length per nucleus (z-score)” value in test [2] was -0.709. In test [3], the nucleus roundness z-score turned out to be 0.182. For the same molecule, the “KCl-induced FOS+/EGR-1+ double-positive nuclei fraction z-score” value in test [4] is -0.429.

In the case of `CC1=CC(=O)c2ccccc2C1=O` [Menadione], in test [1], the nucleus area z-score is 0.51. The “total neurite length per nucleus (z-score)” value in test [2] was -0.37. Further, the nucleus roundness z-score in test [3] was -0.639. The “KCl-induced FOS+/EGR-1+ double-positive nuclei fraction z-score” value in test [4] came out at 0.186.

Take `O=C(c1ccc(Nc2nccc(-c3cc4ccccc4s3)n2)cc1)N1CCC(N2CCCC2)CC1` [IKK-16 (IKK Inhibitor VII)]: the nucleus area z-score in test [1] was -11.8. In test [2], the “total neurite length per nucleus (z-score)” value is -3.71. The molecule further came in with a nucleus roundness z-score in test [3] of -0.105. In addition, the “KCl-induced FOS+/EGR-1+ double-positive nuclei fraction z-score” value in test [4] was -0.725.

In test [1], `Cc1nc(Nc2n[nH]c3c2CN(C(=O)N[C@H](CN(C)C)c2ccccc2)C3(C)C)c2sccc2n1` yielded a nucleus area z-score of -12.2. In test [2], the “total neurite length per nucleus (z-score)” value is -3.29. In test [3], this molecule had a nucleus roundness z-score of -4.68. Besides, in test [4], the “KCl-induced FOS+/EGR-1+ double-positive nuclei fraction z-score” value is -0.647.

With `CCCc1nn(C)c2c(=O)[nH]c(-c3cc(S(=O)(=O)N4CCN(C)CC4)ccc3OCC)nc12` [Sildenafil], the nucleus area z-score in test [1] is 2.31. Besides, the “total neurite length per nucleus (z-score)” value in test [2] was 0.685. The nucleus roundness z-score in test [3] is -0.0355. In addition, in test [4], the “KCl-induced FOS+/EGR-1+ double-positive nuclei fraction z-score” value was 0.438.

In test [1], `C[C@H](CCC(=O)O)[C@H]1CC[C@H]2[C@@H]3CC[C@@H]4C[C@H](O)CC[C@]4(C)[C@H]3CC[C@]12C` [Lithocholic acid] showed a nucleus area z-score of 0.28. Further, the “total neurite length per nucleus (z-score)” value in test [2] was 1.51. In test [3], the nucleus roundness z-score came to 0.299. In addition, in test [4], the “KCl-induced FOS+/EGR-1+ double-positive nuclei fraction z-score” value amounted to 0.48.

As for `Cn1sc(=O)n(Cc2ccccc2)c1=O`, the nucleus area z-score in test [1] was 0.973. Also, the “total neurite length per nucleus (z-score)” value in test [2] is -0.612. The molecule further gave a nucleus roundness z-score in test [3] of 0.145. Further, the “KCl-induced FOS+/EGR-1+ double-positive nuclei fraction z-score” value in test [4] was determined as 2.31.

Take `Cc1c(C(N)=O)cc([N+](=O)[O-])cc1[N+](=O)[O-]` [Dinitolmide]: the nucleus area z-score in test [1] was 1.14. Moreover, the “total neurite length per nucleus (z-score)” value in test [2] is -0.118. Besides, in test [3], the nucleus roundness z-score is -1.24. Besides, the “KCl-induced FOS+/EGR-1+ double-positive nuclei fraction z-score” value in test [4] is -0.646.

In test [1], `Clc1ccccc1CN1CCc2sccc2C1` [Ticlopidine HCl] came in with a nucleus area z-score of -0.33. The “total neurite length per nucleus (z-score)” value in test [2] was 0.174. The molecule also returned a nucleus roundness z-score in test [3] of 0.595. Besides, in test [4], the “KCl-induced FOS+/EGR-1+ double-positive nuclei fraction z-score” value worked out at 0.215.

The molecule `NC(=O)c1cccc(-c2cccc(OC(=O)NC3CCCCC3)c2)c1` showed a nucleus area z-score in test [1] of 0.741. Also, the “total neurite length per nucleus (z-score)” value in test [2] stood at 1.07. Further, in test [3], the nucleus roundness z-score is 0.941. The “KCl-induced FOS+/EGR-1+ double-positive nuclei fraction z-score” value in test [4] came out at 1.12.

In turn, `O=C(Nc1cccc(Cl)c1)Nc1ncc(CCNc2ncnc3ccsc23)s1` [SNS-314 Mesylate] registered a nucleus area z-score in test [1] of 0.224. Also, the “total neurite length per nucleus (z-score)” value in test [2] amounted to 0.339. The nucleus roundness z-score in test [3] is 0.32. Besides, the “KCl-induced FOS+/EGR-1+ double-positive nuclei fraction z-score” value in test [4] is -0.214.

Regarding `O=c1c(O)c(-c2ccc(O)cc2O)oc2cc(O)cc(O)c12` [Morin Hydrate], the nucleus area z-score in test [1] is -0.495. Further, the “total neurite length per nucleus (z-score)” value in test [2] is 0.682. The molecule further yielded a nucleus roundness z-score in test [3] of -0.132. The “KCl-induced FOS+/EGR-1+ double-positive nuclei fraction z-score” value in test [4] was determined as 1.12.

Molecule `Cc1c[nH]c(/C=C2\C(=O)Nc3ccccc32)c1CCC(=O)O` had a nucleus area z-score in test [1] of 1.57. For the same molecule, the “total neurite length per nucleus (z-score)” value in test [2] worked out at 0.205. In addition, the nucleus roundness z-score in test [3] was -0.907. Further, the “KCl-induced FOS+/EGR-1+ double-positive nuclei fraction z-score” value in test [4] was determined as 0.865.
